## Melanoma cell counts after drug treatment

Data from the primary screen of doi:10.1371/journal.pone.0140310, rounded.

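Human melanoma cells were exposed to two drugs together for 72 h in 1,536-well plates and read by automated microscopy after fixing and staining. Each value is the count of nuclei relative to DMSO-treated wells, in %, so that 100 equals the control. Concentrations were fixed for each drug; these are the higher of two levels. No replicate spread is given; individual values may be noisy.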 An unselected part of the screen is shown.

Drug key:
L-779450, 1000 nM: Oc1cc(-c2nc(-c3ccccc3)[nH]c2-c2ccncc2)ccc1Cl
dovitinib, 500 nM: CN1CCN(c2ccc3nc(-c4c(N)c5c(F)cccc5[nH]c4=O)[nH]c3c2)CC1
decitabine, 500 nM: Nc1ncn([C@H]2C[C@H](O)[C@@H](CO)O2)c(=O)n1
bortezomib, 5 nM: CC(C)C[C@H](NC(=O)[C@H](Cc1ccccc1)NC(=O)c1cnccn1)B(O)O
ABT-263, 2000 nM: CC1(C)CCC(c2ccc(Cl)cc2)=C(CN2CCN(c3ccc(C(=O)NS(=O)(=O)c4ccc(N[C@H](CCN5CCOCC5)CSc5ccccc5)c(S(=O)(=O)C(F)(F)F)c4)cc3)CC2)C1
vincristine, 0.5 nM: CC[C@]1(O)C[C@H]2CN(CCc3c([nH]c4ccccc34)[C@@](C(=O)OC)(c3cc4c(cc3OC)N(C=O)[C@H]3[C@@](O)(C(=O)OC)[C@H](OC(C)=O)[C@]5(CC)C=CCN6CC[C@]43[C@@H]65)C2)C1
JZL184, 5000 nM: O=C(Oc1ccc([N+](=O)[O-])cc1)N1CCC(C(O)(c2ccc3c(c2)OCO3)c2ccc3c(c2)OCO3)CC1
NVP-TAE684, 400 nM: COc1cc(N2CCC(N3CCN(C)CC3)CC2)ccc1Nc1ncc(Cl)c(Nc2ccccc2S(=O)(=O)C(C)C)n1
temozolomide, 10000 nM: Cn1nnc2c(C(N)=O)ncn2c1=O
tamatinib, 2000 nM: COc1cc(Nc2ncc(F)c(Nc3ccc4c(n3)NC(=O)C(C)(C)O4)n2)cc(OC)c1OC

Drugs | C32 | COLO 792 | COLO 829 | COLO 800 | WM451Lu | WM3619
ABT-263 + JZL184 | 90.5 | 26.4 | 87.4 | 77.0 | 104 | 66.6
dovitinib + NVP-TAE684 | 56.8 | 39.5 | 55.5 | 46.7 | 81.3 | 43.6
NVP-TAE684 + vincristine | 79.3 | 69.2 | 85.6 | 54.6 | 37.0 | 86.6
temozolomide + bortezomib | 27.5 | 39.8 | 15.7 | 58.2 | 15.4 | 3.8
temozolomide + JZL184 | 98.1 | 83.6 | 77.6 | 82.1 | 94.5 | 67.8
L-779450 + ABT-263 | 57.4 | 18.7 | 43.1 | 39.6 | 33.9 | 55.6
ABT-263 + tamatinib | 83.9 | 3.2 | 82.5 | 16.2 | 75.0 | 62.0
tamatinib + temozolomide | 120 | 36.0 | 83.5 | 38.6 | 128 | 97.2
bortezomib + ABT-263 | 14.9 | 3.5 | 7.4 | 29.5 | 6.9 | 2.5
ABT-263 + decitabine | 72.5 | 11.1 | 81.0 | 11.0 | 84.2 | 71.7
tamatinib + decitabine | 71.4 | 20.3 | 77.1 | 28.2 | 77.5 | 61.9
JZL184 + bortezomib | 18.4 | 41.8 | 14.8 | 55.1 | 25.9 | 4.1
NVP-TAE684 + ABT-263 | 55.1 | 9.9 | 103 | 11.0 | 66.8 | 75.9
decitabine + NVP-TAE684 | 97.0 | 72.8 | 73.1 | 44.0 | 84.8 | 91.9
JZL184 + decitabine | 91.3 | 68.9 | 61.4 | 99.8 | 87.4 | 83.2
bortezomib + NVP-TAE684 | 26.4 | 43.4 | 15.2 | 56.1 | 21.7 | 3.9
temozolomide + dovitinib | 66.5 | 48.6 | 55.2 | 57.7 | 86.4 | 86.7
dovitinib + JZL184 | 86.1 | 50.4 | 62.1 | 74.5 | 107 | 63.4
decitabine + vincristine | 86.5 | 76.6 | 48.6 | 59.3 | 36.5 | 68.8
temozolomide + decitabine | 103 | 67.8 | 72.9 | 66.6 | 82.0 | 63.9
NVP-TAE684 + JZL184 | 59.9 | 95.5 | 94.4 | 91.4 | 103 | 94.4
tamatinib + dovitinib | 79.7 | 29.2 | 62.2 | 28.7 | 66.0 | 65.3
L-779450 + temozolomide | 91.6 | 97.4 | 76.0 | 98.6 | 57.6 | 93.5
ABT-263 + vincristine | 42.1 | 16.2 | 90.5 | 32.2 | 25.2 | 76.4
NVP-TAE684 + temozolomide | 65.0 | 75.5 | 69.4 | 38.1 | 80.8 | 75.8
bortezomib + dovitinib | 32.9 | 24.4 | 9.7 | 79.3 | 23.1 | 5.1
temozolomide + vincristine | 82.6 | 107 | 89.4 | 92.9 | 50.3 | 64.8
dovitinib + ABT-263 | 69.2 | 1.5 | 47.2 | 25.0 | 85.9 | 46.0
vincristine + dovitinib | 61.3 | 55.1 | 47.8 | 91.4 | 20.5 | 39.7
L-779450 + vincristine | 57.0 | 111 | 56.8 | 130 | 26.5 | 38.0
decitabine + bortezomib | 75.5 | 31.4 | 14.4 | 67.3 | 20.6 | 3.4

3 of the entries, repeated:

| Drugs | C32 | COLO 792 | COLO 829 | COLO 800 | WM451Lu | WM3619 |
|---|---|---|---|---|---|---|
| temozolomide + JZL184 | 98.1 | 83.6 | 77.6 | 82.1 | 94.5 | 67.8 |
| decitabine + NVP-TAE684 | 97.0 | 72.8 | 73.1 | 44.0 | 84.8 | 91.9 |
| JZL184 + bortezomib | 18.4 | 41.8 | 14.8 | 55.1 | 25.9 | 4.1 |